PubChem BioAssay AID248 (DTP/NCI, 2004)
The list shows only some results of the screen, not a fair sample: it gathers tests that were run many times, whatever their T/C, doses with no T/C, and many T/C values between a quarter and a half above the control. Further doses and runs are listed elsewhere. T/C gives the treated animals as a percentage of the vehicle group. Some doses have a count of surviving animals in place of a T/C: the source holds a T/C of zero for them, seemingly a mark for toxic or unscored doses. Some doses without a T/C left all or most animals alive at the check, yet need not have been tolerated: the source hardly ever lists a survival T/C far under the control, and the zero likely stands for such cases as well. Counts of survivors are from the toxicity check (mostly the fifth day) where no day follows; animals may have died later. Schedule codes are those of the source, read here as Q, the interval in days (D) or hours (H), X, the number of doses. Where survival is the endpoint, the PubChem record calls one and a half times the control and up active, and a quarter to a half above the control has no call in these data; cut-offs in other NCI protocols can differ. Some T/C values are followed by the survivors on the day toxicity was checked, most often the fifth; without a count, all were alive then.

System: L1210 leukemia ip in BDF1 mice, survival T/C
Assay: NCI In Vivo Anticancer Drug Screen. Data for tumor model L1210 Leukemia (intraperitoneal) in B6D2F1 (BDF1) mice
Details: T/C endpoint: mean survival time, higher T/C = longer survival
[1] = dose: 400.0 mg/kg/injection, schedule: Q04DX002 (ip), vehicle: Klucel (hydroxypropylcellulose) (HPC)

What does the source list for O=C(CBr)Nc1cc([N+](=O)[O-])ccc1O?
survivor count (dose: 50.0 mg/kg/injection, schedule: Q01DX009 (ip), vehicle: saline with Tween-80): 2 of 3; survivor count (dose: 100.0 mg/kg/injection, schedule: Q01DX009 (ip), vehicle: saline with Tween-80): 0 of 3; survivor count (dose: 200.0 mg/kg/injection, schedule: Q01DX009 (ip), vehicle: saline with Tween-80): 0 of 3

With CCN(CC)CCNC(c1ccc(OC)cc1)C(Cl)(Cl)Cl (centres undefined) as the molecule, how does the survivor count (dose: 300.0 mg/kg/injection, schedule: Q01DX001 (ip), vehicle: saline) read?
Its survivor count is 0 of 6.

How did the survivor count [1] turn out when COc1cccc(NC(=O)Oc2ccc(Cl)cc2Cl)c1 was run?
Its survivor count is 3 of 3.

How did the survivor count [1] turn out when NNC(=O)CNc1ccccc1Cl was run?
The survivor count was 0 of 3.

With CC(=O)OC(C)(C)Cc1ccccc1 as the molecule, how does the survivor count (dose: 400.0 mg/kg/injection, schedule: Q01DX009 (ip), vehicle: saline with Tween-80) read?
The survivor count was 2 of 6.

With CC1(C)[C@@H]2CC[C@@]1(CS(=O)(=O)O)C(=O)C2 as the molecule, how does the survivor count (dose: 400.0 mg/kg/injection, schedule: Q04DX002 (ip), vehicle: other) read?
The survivor count was 2 of 3.

With COc1cc2c(cc1OC)/C(=C(\C#N)CCC(C)=O)NCC2 as the molecule, how does the survivor count (dose: 400.0 mg/kg/injection, schedule: Q01DX001 (ip), vehicle: carboxymethylcellulose (CMC)) read?
The survivor count was 0 of 4.

How did the T/C (dose: 100.0 mg/kg/injection, schedule: Q01DX001 (ip), vehicle: other) turn out when Clc1ccc(/C=C/c2ccccc2)cc1 was run?
The T/C was 127 % of control.

For O=[N+]([O-])c1cc(/C=N/N=C2c3ccccc3-c3ccccc32)ccc1Cl, which survivor count (dose: 150.0 mg/kg/injection, schedule: Q01DX001 (ip), vehicle: other) is on record?
The survivor count was 6 of 6.

How did the survivor count (dose: 600.0 mg/kg/injection, schedule: Q01DX001 (ip), vehicle: carboxymethylcellulose (CMC)) turn out when CCOCc1ccc(O)c2ncccc12 was run?
The survivor count was 2 of 6.

COc1cc(N(CCCl)CCCl)c(OC)cc1/C=N\NC(=O)CN(C)C was tested. Which T/C (dose: 50.0 mg/kg/injection, schedule: Q01DX001 (ip), vehicle: saline) did it give?
Its T/C is 135 % of control.

What about the survivor count (dose: 50.0 mg/kg/injection, schedule: Q01DX015 (ip), vehicle: saline) of the same molecule?
Its survivor count is 6 of 6.

What about the T/C (dose: 66.6 mg/kg/injection, schedule: Q01DX001 (ip), vehicle: saline) of the same molecule?
Its T/C is 135 % of control.

And the survivor count (dose: 72.0 mg/kg/injection, schedule: Q01DX015 (ip), vehicle: saline)?
Its survivor count is 6 of 6.

What about the T/C (dose: 100.0 mg/kg/injection, schedule: Q01DX001 (ip), vehicle: saline) of the same molecule?
The T/C was 149 % of control.

And the survivor count (dose: 100.0 mg/kg/injection, schedule: Q01DX015 (ip), vehicle: saline)?
The survivor count was 0 of 6.

What about the survivor count (dose: 200.0 mg/kg/injection, schedule: Q01DX001 (ip), vehicle: saline) of the same molecule?
The survivor count was 0 of 4.

And the survivor count (dose: 400.0 mg/kg/injection, schedule: Q01DX001 (ip), vehicle: saline)?
The survivor count was 0 of 4.

For O=C(c1ccccc1)C(O)(CC(c1ccccc1)[P+](c1ccccc1)(c1ccccc1)c1ccccc1)c1ccccc1 (centres undefined), which survivor count (dose: 7.0 mg/kg/injection, schedule: Q01DX009 (ip), vehicle: saline) is on record?
The survivor count was 2 of 6.

And the survivor count (dose: 14.0 mg/kg/injection, schedule: Q01DX009 (ip), vehicle: saline)?
Its survivor count is 1 of 6.

And the survivor count (dose: 50.0 mg/kg/injection, schedule: Q01DX009 (ip), vehicle: Klucel (hydroxypropylcellulose) (HPC))?
Its survivor count is 1 of 6.

What about the survivor count (dose: 100.0 mg/kg/injection, schedule: Q01DX001 (ip), vehicle: saline with Tween-80) of the same molecule?
The survivor count was 5 of 6.

What about the survivor count (dose: 200.0 mg/kg/injection, schedule: Q01DX001 (ip), vehicle: saline with Tween-80) of the same molecule?
Its survivor count is 5 of 6.

CCc1cc(/C=C2\C(=O)C=Cc3ccccc32)c(O)s1 was tested. Which survivor count (dose: 200.0 mg/kg/injection, schedule: Q04DX002 (ip), vehicle: saline with Tween-80) did it give?
Its survivor count is 3 of 3.

Which results are given for CN(C)N=Nc1ccccc1CO?
survivor count (dose: 6.25 mg/kg/injection, schedule: Q04DX003 (ip), vehicle: other): 6 of 6; survivor count (dose: 12.5 mg/kg/injection, schedule: Q01DX009 (ip), vehicle: other): 3 of 6; survivor count (dose: 12.5 mg/kg/injection, schedule: Q04DX003 (ip), vehicle: other): 6 of 6; survivor count (dose: 25.0 mg/kg/injection, schedule: Q01DX009 (ip), vehicle: other): 1 of 6; survivor count (dose: 25.0 mg/kg/injection, schedule: Q04DX003 (ip), vehicle: other): 6 of 6; survivor count (dose: 50.0 mg/kg/injection, schedule: Q01DX009 (ip), vehicle: other): 0 of 6; survivor count (dose: 100.0 mg/kg/injection, schedule: Q01DX009 (ip), vehicle: other): 0 of 6; survivor count (dose: 100.0 mg/kg/injection, schedule: Q04DX003 (ip), vehicle: other): 0 of 6; survivor count (dose: 200.0 mg/kg/injection, schedule: Q01DX009 (ip), vehicle: other): 0 of 6; survivor count (dose: 200.0 mg/kg/injection, schedule: Q04DX003 (ip), vehicle: other): 0 of 6; survivor count (dose: 400.0 mg/kg/injection, schedule: Q01DX009 (ip), vehicle: other): 0 of 6

How did the survivor count (dose: 400.0 mg/kg/injection, schedule: Q01DX001 (ip), vehicle: other) turn out when O=c1[nH]cnc2c1ncn2Cc1ccc([N+](=O)[O-])cc1 was run?
Its survivor count is 3 of 6.

With O=[N+]([O-])CC(Nc1ccccc1)c1ccccc1 (centres undefined) as the molecule, how does the T/C (dose: 400.0 mg/kg/injection, schedule: Q01DX001 (ip), vehicle: Klucel (hydroxypropylcellulose) (HPC)) read?
The T/C was 126 % of control [5 of 6 alive].
